This passage reports cell number change and AC50 results from PubChem BioAssay AID2685 (National Center for Advancing Translational Sciences (NCATS), 2010).

The other results are listed elsewhere or left out. The main result of the screen is listed elsewhere. These columns were measured beside it and carry no call. Compounds called inactive in the main read-out are mostly missing here. Words in brackets tell the shape of the fitted curve; partial curves, single points and poor fits give uncertain potencies.

A short description of the experiment: qHTS Assay for Lipid Storage Modulators in Drosophila S3 Cells.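 As to cell number change: cells counted by Cell Tracker Red CMTPX staining in the red channel.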 Particulars: BODIPY lipid droplet fluorescence, 18-24 h; for cell number change: measured here: cell count max response, cells fed with added oleic acid. The method in brief:
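Laser-scanning cytometry quantifies lipid droplet accumulation (500–530 nm total intensity; droplet/cell object ratio) in oleic acid-fed (400 uM added) Drosophila S3 cells treated with a concentration series. 20 uM Triacsin C defined 100% inhibition.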
In general terms: In qHTS, concentration-response curves come from the screen itself.

[1] abbreviates: measured here: cell number channel AC50, cells fed with added oleic acid.
The mark [2] stands for this setting: measured here: lipid fluorescence (Fed channel) AC50, cells fed with added oleic acid.

By AC50 is commonly meant the midpoint of the concentration-response curve, whichever way the signal moves. Low values mean activity at low concentration, high ones activity only at high concentration. `C=CCn1cccc(C(=O)Nc2cc(OC)cc(OC)c2)c1=O`: the cell number change is -21.4%. Besides, the AC50 under setting [1] was 0.00411 µM [rising, full curve, poor fit]. Under setting [2], the AC50 is 23.1 µM [falling, single point].
On to `COc1ccc(CCN2C(=NC(=O)CC(C)C)SC3CS(=O)(=O)CC32)cc1` (configuration not stated), for which the cell number change worked out at 40%. Besides, under setting [1], the AC50 was 0.651 µM [rising, partial curve, poor fit]. Moreover, the AC50 under setting [2] is 2.06 µM [rising, partial curve].
Regarding `Cc1ccc(/C=N/NC(=O)CNC(=O)c2ccc(S(=O)(=O)N(C)C)cc2)o1`, the cell number change was found to be 28.1%. Besides, under setting [2], the AC50 was 0.731 µM [falling, single point].
Take `O=C(N/N=C/c1ccccn1)c1cccc(S(=O)(=O)N2CCCC2)c1`: the cell number change came to 1.14%.
On to `CC(=O)Nc1ccc(SCC(=O)N(C)C2CCS(=O)(=O)C2)cc1` (configuration not stated), for which the concentration at half-maximal activity (AC50) under setting [2] was 0.461 µM [falling, partial curve].
On to `O=C(OCC(=O)N1CCc2ccccc21)c1cccnc1Cl`, for which the cell number change was -38.8%. Moreover, the AC50 under setting [1] is 16.4 µM [falling, single point]. In addition, under setting [2], the AC50 was 29.1 µM [falling, single point].
For `Cc1cc(SCC(=O)Nc2ccccc2)n2ncc(-c3ccccc3)c2n1`, the cell number change was -37%. Moreover, the AC50 under setting [1] is 16.4 µM [falling, partial curve]. In addition, the AC50 under setting [2] was 18.4 µM [falling, partial curve].
Consider `CCC1(CC)C(=O)C(C)(C)C(=O)OC1c1cccs1` (configuration not stated), for which the cell number change is -17.6%. Besides, the AC50 under setting [2] is 6.51 µM [falling, single point].
As for `CC(Oc1ccc(F)cc1)C(=O)Nc1cccc(-c2nn[nH]n2)c1` (configuration not stated), the cell number change was -12.4%.
Regarding `COc1cc(OCC(N)=O)cc(OC)c1OC`, the cell number change is 0.689%. In addition, the concentration at half-maximal activity (AC50) under setting [2] is 0.411 µM [falling, full curve, poor fit].
Consider `COc1cc(CO)cc(Br)c1OCC(=O)O`, for which, under setting [2], the concentration at half-maximal activity (AC50) was 0.00517 µM [falling, full curve, poor fit].
Regarding `O=C(NCc1ccccn1)/C(=N/O)c1ccccc1`, the cell number change was -26.9%. Further, the AC50 under setting [1] is 0.651 µM [falling, full curve, poor fit]. The concentration at half-maximal activity (AC50) under setting [2] was 0.58 µM [falling, full curve].
For the compound `COCCn1nnnc1C(C(C)C)N(Cc1cccnc1)Cc1cc2cc(OC)ccc2[nH]c1=O` (configuration not stated), the cell number change was found to be 18%.
Regarding `COc1cc2c(=O)n(CC3CCCO3)c(=O)n(CC(=O)Nc3cccc(Cl)c3)c2cc1OC` (configuration not stated), the cell number change is 22.3%. The concentration at half-maximal activity (AC50) under setting [1] is 1.16 µM [rising, full curve]. The AC50 under setting [2] was 2.06 µM [rising, partial curve].
Consider `Cc1ccsc1C(=O)OC1CCOC1=O` (configuration not stated), for which the cell number change is -38.4%. Further, the half-maximal activity concentration (AC50) under setting [1] was 0.146 µM [falling, full curve, poor fit]. The AC50 under setting [2] is 0.82 µM [falling, full curve].
As to `O=C(c1ccc(COc2ccc(Cl)cc2)o1)N1CCN(Cc2ccc3c(c2)OCO3)CC1`, the cell number change is -6.95%.
For the compound `O=C(Nc1nn[nH]n1)c1cc(-c2ccc(Cl)c(Cl)c2Cl)nc2ccccc12`, the cell number change is 145%. Also, the AC50 under setting [1] is 29.1 µM [rising, single point].
For the compound `O=C(Nc1ccccc1)/C(=C1\CCCN1)[N+](=O)[O-]`, the cell number change is -27.8%. The AC50 under setting [1] is 0.116 µM [falling, full curve, poor fit]. Besides, under setting [2], the AC50 was 0.164 µM [falling, full curve].
As to `O=S(=O)(Nc1ncccn1)c1ccc(NS(=O)(=O)c2cc(Cl)ccc2Cl)cc1`, the cell number change was determined as 17.2%.
Regarding `Cc1ccc(/C=N/NC(=O)Cc2ccc(Cl)cc2)c(O)c1`, the cell number change was -12.2%. Besides, the half-maximal activity concentration (AC50) under setting [2] is 18.4 µM [falling, single point].
Consider `Fc1cc(F)c(F)c(SCCc2ccncc2)c1F`, for which the cell number change was -42.5%. The half-maximal activity concentration (AC50) under setting [1] was 23.1 µM [falling, single point]. Moreover, the AC50 under setting [2] was 29.1 µM [falling, single point].
For `O=C(NC(=S)Nc1cccc(S(=O)(=O)NC2=NCCC2)c1)c1cc(-c2ccco2)nc2ccccc12`, the cell number change is -24.7%. In addition, the AC50 under setting [2] is 29.1 µM [falling, single point].
With `Cc1noc(C)c1NC(=O)NCCN1CCN(Cc2ccccc2)CC1`, the cell number change was -21.4%. Besides, under setting [2], the half-maximal activity concentration (AC50) is 29.1 µM [falling, single point].
Regarding `COc1cccc(NC(=O)CN(C)C(=O)c2oc3c(ccc4ccccc43)c2C)c1`, the cell number change came out at 4.36%. Also, under setting [2], the half-maximal activity concentration (AC50) is 6.51 µM [rising, partial curve].
Consider `Nc1nc(-c2ccc(-c3ccccc3)cc2)cs1`, for which the cell number change was determined as 54.4%. Moreover, the half-maximal activity concentration (AC50) under setting [1] is 14.6 µM [rising, partial curve, poor fit].
`COc1ccc(Br)cc1CNC(=O)Cn1nc(C)n2cccc2c1=O`: the cell number change is -24.5%. The AC50 under setting [2] was 6.51 µM [rising, single point].
Turning to `COc1ccc(OC)c(NC(=O)CCC(=O)N(Cc2ccc(OC)c(OC)c2)c2nccs2)c1`, the cell number change was 0.753%. Moreover, the half-maximal activity concentration (AC50) under setting [2] is 5.17 µM [falling, single point].
Regarding `CCOC(=O)C1CCN(S(=O)(=O)c2c[nH]c(=O)[nH]c2=O)CC1`, the cell number change worked out at 10.5%.
`O=C(CNCc1ccc(F)cc1)Nc1ccccc1[N+](=O)[O-]`: the cell number change is -8.94%. Under setting [2], the half-maximal activity concentration (AC50) was 6.51 µM [falling, partial curve, poor fit].
As for `COc1ccc(-n2nc3c(c2NC(=O)COc2cccc(OC)c2)CS(=O)(=O)C3)cc1`, under setting [1], the AC50 is 0.146 µM [falling, full curve, poor fit].
Regarding `CC(=O)Nc1ccc2c(c1)C(=O)N(c1ccc(C)cc1)C2=O`, the cell number change stood at 110%. The concentration at half-maximal activity (AC50) under setting [1] is 4.61 µM [rising, partial curve]. Also, the AC50 under setting [2] was 2.91 µM [rising, partial curve].
As for `CCc1cc(C(=O)NC2CCCN(Cc3ccccc3F)C2)n(C)n1` (configuration not stated), the cell number change is -0.597%. Also, the AC50 under setting [2] is 5.17 µM [rising, partial curve].
Regarding `Cc1ccc(C(CC(=O)N2CCNCC2)c2ccccc2)c(O)c1C` (configuration not stated), the cell number change came to 97.2%. Further, under setting [1], the concentration at half-maximal activity (AC50) is 6.51 µM [rising, partial curve].
For the compound `Cc1ccc(N=C2CSC(=O)N2)cc1`, the cell number change is -24.4%. Also, the half-maximal activity concentration (AC50) under setting [2] was 25.9 µM [falling, single point].
Take `Cn1c(SCC(=O)NC2CCCCC2)nnc1-c1cc2ccccc2o1`: the cell number change is -8.7%. Besides, under setting [2], the AC50 was 6.51 µM [falling, full curve, poor fit].
On to `CC1=C(C(=O)Nc2ccccc2C(=O)NC2CCC(C)CC2)SCCO1` (configuration not stated), for which the cell number change worked out at 27.4%. Also, the half-maximal activity concentration (AC50) under setting [2] was 18.4 µM [rising, single point].
As for `O=C(Nc1ccc(Cl)cc1)C1CCCN(C2=NS(=O)(=O)c3ccccc32)C1` (configuration not stated), the cell number change stood at 0.752%. For the same compound, under setting [2], the concentration at half-maximal activity (AC50) was 6.51 µM [falling, single point].
With `CCCc1cc(=O)n2[nH]c(-c3ccc(OC)cc3)nc2n1`, the cell number change stood at 38.8%. Also, the AC50 under setting [1] is 14.6 µM [rising, single point].
For `O=C(COc1ccccc1F)c1ccc(O)cc1O`, the cell number change was -8.84%.
As to `Cc1ccccc1C(=O)NCCNC(=O)c1cnccn1`, the cell number change amounted to 3.95%. Besides, under setting [2], the AC50 is 1.58 µM [rising, partial curve].
For `CN1/C(=C/C=N/NC(=O)c2ccc([N+](=O)[O-])cc2)C(C)(C)c2ccccc21`, the cell number change turned out to be 16.4%. Besides, under setting [2], the half-maximal activity concentration (AC50) was 14.6 µM [rising, single point].
For `Cc1cc(NC(=O)C(C)(C)C)no1`, the cell number change was -184%. Further, the half-maximal activity concentration (AC50) under setting [1] is 20.6 µM [falling, partial curve]. Moreover, the concentration at half-maximal activity (AC50) under setting [2] was 0.00461 µM [falling, full curve, poor fit].
Turning to `CCSc1nc(-c2ccco2)ccc1C#N`, the cell number change came to 23.8%. Besides, the concentration at half-maximal activity (AC50) under setting [2] is 6.51 µM [falling, single point].
With `O=C(C1CCC1)N1CCc2cc(S(=O)(=O)NCC3COc4ccccc4O3)ccc21` (configuration not stated), the cell number change is 283%. Further, the AC50 under setting [1] was 20.6 µM [rising, partial curve].
Regarding `COc1ccccc1OCC(=O)Nc1sc2c(c1C(=O)NCC1CCCO1)CCC2` (configuration not stated), the cell number change was -21.9%.
For the compound `Cc1nn(CCC(=O)NCc2ccc(OC(C)C)cc2)c(=O)c2nn(-c3ccccc3)c(C)c12`, the cell number change was determined as 23.2%. In addition, under setting [1], the AC50 is 1.3 µM [rising, full curve, poor fit]. In addition, under setting [2], the AC50 was 4.61 µM [rising, partial curve, poor fit].
As for `CCOc1ccc2nc(SCC(=O)c3ccccc3)sc2c1`, the cell number change was -0.417%. The concentration at half-maximal activity (AC50) under setting [2] is 0.231 µM [falling, full curve].
On to `Cc1ccc(SC(C)C(=O)Nc2ccc(S(=O)(=O)N3CCOCC3)cc2)cc1` (configuration not stated), for which, under setting [2], the AC50 was 11.6 µM [falling, partial curve, poor fit].
On to `O=C(c1ccc(Cl)c(F)c1F)N1CCOCC1`, for which the cell number change turned out to be 10.9%. Also, the AC50 under setting [2] was 6.51 µM [falling, full curve].
Consider `Cc1ccc(-c2nnc(SCC(=O)Nc3nc4c(s3)CCCC4)n2C)cc1`, for which the cell number change was -0.559%. In addition, the concentration at half-maximal activity (AC50) under setting [2] is 0.00461 µM [falling, full curve, poor fit].
As to `O=C(Cn1nc(-c2ccccc2)ccc1=O)NCc1ccc2c(c1)OCO2`, the cell number change came out at 14.8%.
The same measure, in the same setting: under `O=C(CCCCCN1C(=O)c2cccc3cccc(c23)C1=O)N1CCOCC1` stands 19.2%.
Consider `CC/C=C/C(=O)N1CC2(CC(c3cccc(NC(=O)COc4ccc(Cl)cc4)c3)=NO2)C[C@H]1C(N)=O` (some centres not stated), for which the cell number change is -11.4%. For the same compound, the half-maximal activity concentration (AC50) under setting [2] is 16.4 µM [falling, single point].
On to `COc1ccc(S(=O)(=O)N2Cc3ccccc3CC2C(=O)Nc2nccs2)cc1OC` (configuration not stated), for which the concentration at half-maximal activity (AC50) by setting is: under setting [1], 1.3 µM [rising, full curve]; under setting [2], 0.517 µM [rising, partial curve, poor fit].
As to `Cc1ccc(-c2ccc(=O)n(Cc3ccc(F)cc3Cl)n2)cc1`, the cell number change was -27.5%. Also, under setting [2], the half-maximal activity concentration (AC50) was 29.1 µM [falling, single point].
Regarding `N#Cc1ccccc1CSc1nc2ccc(NC(=O)c3ccccc3C(=O)O)cc2s1`, the cell number change amounted to 9.9%.
`Cc1cnc(C(=O)OCC(=O)Nc2sc3c(c2C(N)=O)CCCC3)cn1`: the cell number change was -52.1%. Besides, under setting [1], the concentration at half-maximal activity (AC50) was 29.1 µM [falling, single point]. For the same compound, the half-maximal activity concentration (AC50) under setting [2] was 3.66 µM [falling, single point].
As to `Cn1nnnc1SCC(=O)N1CCCCC1`, the cell number change is -2.25%.
For the compound `CC1(C)CC2c3cccc(C(=O)O)c3C(=O)N2c2c1ccc1ccccc21` (configuration not stated), the cell number change worked out at 21.6%. Under setting [2], the concentration at half-maximal activity (AC50) is 23.1 µM [rising, single point].
In the case of `Nc1c(C(=O)N/N=C/c2ccccc2Cl)oc2nc(-c3ccccc3)cc(-c3ccco3)c12`, the cell number change was -7.61%.
On the same count and under the same terms, under `CN(C)c1ccc(C(O)P(=O)(OCc2ccccc2)c2ccc(N(C)C)cc2)cc1` (configuration not stated) stands -13.6%.
